# Source: patent US4760078A, “Immunomodulator 1,2-dithiol-3-thione derivative composition, use method and process of producing the same” (priority 1986, dated 1988)
# At least one structure is not confirmed: it was looked up by name or label, or the drawing left a doubt.
# System: rat EAE
# Assay: Action against experimental allergic encephalomyelitis (EAE) of rats
# Format: in vivo, Lewis rat
# Conditions: from the mean score when the rats were alive
smiles,measurement,value
"S=c1cc(C=CC=Cc2ccccc2)ss1 [Compound 1, 5-(4-phenyl-1,3-butadienyl)-1,2-dithiol-3-thione]",inhibition against rat EAE,excellent inhibition against rat EAE
